Taken from: PubChem BioAssay AID1159595 (NIAID, 2016)
Assay: 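Contribution of 126 core TLR signalling genes to the Pam3CSK4 inflammatory response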 (primary screen). Cells: mouse RAW264.7 macrophage reporter cells. Knock-down reagent: single siRNA against mouse genes. Time to read-out: assayed 48 to 72 hours after siRNA transfection; ligand applied for 16 hours. Challenge: Pam3CSK4 (TLR2 ligand) for 16 hours before fixation; dose not given. Detection: 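Nuclear mCherry from a Tnf promoter reporter imaged after 16 h Pam3CSK4, 48–72 h post-transfection; background subtracted, plate median/MAD normalised, robust z-scores averaged over replicates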. Direction: Tnf reporter z-score (replicate mean): higher = stronger Tnf promoter reporter signal than negative control wells. Rule for the call: 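Calls apply to single siRNAs, not genes: activity graded at absolute z of 1, 1.5, 2 and 2.5, and active means averaged z at or beyond ±1.5, i.e. activity score 50 or above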. Calls: active = strong change (up or down); inactive = little change.
Here is a random part of 756 reagents tested. 115 of them (15%) count as active. 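Active calls cover both lowered and raised reporter signal; each score refers to one siRNA rather than a whole gene.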 Reagents against one gene are numbered here. Reagent sequences are not shown. The record does not give: the amount of reagent.

Against Tlr3 (GeneID 142980) #1 the deposit lists Tnf reporter z-score (replicate mean) = -0.209; inactive.
Silencing of Tlr3 (GeneID 142980) #2 came out at: Tnf reporter z-score (replicate mean) = -1.67; active.
Tlr3 (GeneID 142980) #3 scored Tnf reporter z-score (replicate mean) = -0.222; inactive.
Tlr3 (GeneID 142980) #4 showed Tnf reporter z-score (replicate mean) = -0.162; inactive.
Silencing of Tlr3 (GeneID 142980) #5 came out at: Tnf reporter z-score (replicate mean) = 0.749; inactive.
Tlr3 (GeneID 142980) #6 gave Tnf reporter z-score (replicate mean) = 0.805; inactive.
For Ripk3 (GeneID 56532) #1, the values are Tnf reporter z-score (replicate mean) = -0.514; inactive.
Knock-down of Ripk3 (GeneID 56532) #2 came out at: Tnf reporter z-score (replicate mean) = 0.0599; inactive.
After knock-down of Ripk3 (GeneID 56532) #3, the record shows Tnf reporter z-score (replicate mean) = 0.0872; inactive.
Against Ripk3 (GeneID 56532) #4, the entry reads Tnf reporter z-score (replicate mean) = 0.0985; inactive.
After knock-down of Ripk3 (GeneID 56532) #5 the results were Tnf reporter z-score (replicate mean) = 1.62; active.
Against Ripk3 (GeneID 56532) #6 the deposit lists Tnf reporter z-score (replicate mean) = -0.739; inactive.
Against Mapk8 (GeneID 26419) #1, the entry reads Tnf reporter z-score (replicate mean) = 2.19; active.
Mapk8 (GeneID 26419) #2 showed Tnf reporter z-score (replicate mean) = 1.09; inactive.
Mapk8 (GeneID 26419) #3 scored Tnf reporter z-score (replicate mean) = 0.144; inactive.
Mapk8 (GeneID 26419) #4 scored Tnf reporter z-score (replicate mean) = -0.616; inactive.
Against Mapk8 (GeneID 26419) #5, the entry reads Tnf reporter z-score (replicate mean) = -1.07; inactive.
After knock-down of Mapk8 (GeneID 26419) #6, the record shows Tnf reporter z-score (replicate mean) = -0.511; inactive.
Mapkapk2 (GeneID 17164) #1 gave Tnf reporter z-score (replicate mean) = -2.33; active.
Mapkapk2 (GeneID 17164) #2 scored Tnf reporter z-score (replicate mean) = 0.891; inactive.
Depletion of Mapkapk2 (GeneID 17164) #3 resulted in: Tnf reporter z-score (replicate mean) = -0.979; inactive.
Mapkapk2 (GeneID 17164) #4 scored Tnf reporter z-score (replicate mean) = -1.43; inactive.
Depletion of Mapkapk2 (GeneID 17164) #5 resulted in: Tnf reporter z-score (replicate mean) = 1.7; active.
For Mapkapk2 (GeneID 17164) #6 the deposit lists Tnf reporter z-score (replicate mean) = -0.373; inactive.
After knock-down of Pik3ca (GeneID 18706) #1, the record shows Tnf reporter z-score (replicate mean) = 0.683; inactive.
Pik3ca (GeneID 18706) #2 scored Tnf reporter z-score (replicate mean) = 0.667; inactive.
Knock-down of Pik3ca (GeneID 18706) #3 gave: Tnf reporter z-score (replicate mean) = 0.121; inactive.
With knock-down of Pik3ca (GeneID 18706) #4 the results were Tnf reporter z-score (replicate mean) = -1.29; inactive.
With knock-down of Pik3ca (GeneID 18706) #5, the record shows Tnf reporter z-score (replicate mean) = -1.39; inactive.
Against Pik3ca (GeneID 18706) #6, the values are Tnf reporter z-score (replicate mean) = 1.44; inactive.

Records above with an active call:
Tlr3 (GeneID 142980) #2: Tnf reporter z-score (replicate mean) = -1.67; outcome = active
Ripk3 (GeneID 56532) #5: Tnf reporter z-score (replicate mean) = 1.62; outcome = active
Mapk8 (GeneID 26419) #1: Tnf reporter z-score (replicate mean) = 2.19; outcome = active
Mapkapk2 (GeneID 17164) #1: Tnf reporter z-score (replicate mean) = -2.33; outcome = active
Mapkapk2 (GeneID 17164) #5: Tnf reporter z-score (replicate mean) = 1.7; outcome = active

Next records follow.
Irak4 (GeneID 266632) #1 scored Tnf reporter z-score (replicate mean) = 0.0211; inactive.
Depletion of Irak4 (GeneID 266632) #2 came out at: Tnf reporter z-score (replicate mean) = -2.34; active.
For Irak4 (GeneID 266632) #3, the entry reads Tnf reporter z-score (replicate mean) = -1.42; inactive.
Depletion of Irak4 (GeneID 266632) #4 gave: Tnf reporter z-score (replicate mean) = -2.16; active.
Irak4 (GeneID 266632) #5 showed Tnf reporter z-score (replicate mean) = -2.28; active.
Irak4 (GeneID 266632) #6 scored Tnf reporter z-score (replicate mean) = -1.4; inactive.
With knock-down of Cyld (GeneID 74256) #1, the screen gave Tnf reporter z-score (replicate mean) = -0.043; inactive.
After knock-down of Cyld (GeneID 74256) #2, the screen gave Tnf reporter z-score (replicate mean) = -0.0645; inactive.
For Cyld (GeneID 74256) #3, the values are Tnf reporter z-score (replicate mean) = -0.0997; inactive.
Against Cyld (GeneID 74256) #4 the deposit lists Tnf reporter z-score (replicate mean) = 0.158; inactive.
Cyld (GeneID 74256) #5 showed Tnf reporter z-score (replicate mean) = 2.1; active.
Depletion of Cyld (GeneID 74256) #6 came out at: Tnf reporter z-score (replicate mean) = 0.904; inactive.
Knock-down of Ripk1 (GeneID 19766) #1 resulted in: Tnf reporter z-score (replicate mean) = -1.57; active.
Silencing of Ripk1 (GeneID 19766) #2 came out at: Tnf reporter z-score (replicate mean) = -0.417; inactive.
For Ripk1 (GeneID 19766) #3, the entry reads Tnf reporter z-score (replicate mean) = 1.12; inactive.
Ripk1 (GeneID 19766) #4 showed Tnf reporter z-score (replicate mean) = 1.2; inactive.
With knock-down of Ripk1 (GeneID 19766) #5, the record shows Tnf reporter z-score (replicate mean) = -0.532; inactive.
With knock-down of Ripk1 (GeneID 19766) #6, the record shows Tnf reporter z-score (replicate mean) = 2.22; active.
